Measured values reported in patent US10525115B2 (Immatics Biotechnologies GmbH, priority 2014, dated 2020).

B1: SLX4IP (protein, UniProt Q5VYV7 1-408, looked up)
Protein SLX4IP: MASKKFAVKCGNFAVLVDLHILPQGSNKDTSWFSEQKKEEVCLLLKETIDSRVQEYLEVRKQHRPSNAEFTRSNPLSLKGYGFQITAYFLKRGIRLRCIRSTQNAELCVFPDRFVVCVSQLAFSRDLLASQNEDLTERVLHGVSDYFAECAESSLPPSAKLRRNALKEIVKRTETKSSVTSKSQTRRDTVETSSDSVIAEIARRRNDGQASSSPPSESMGQAKDSIKAAESHWGLPVQKLEKVNQTQPEDTSGQQKPHPGERLKTGLLSRSPVCSCESASPCPKQSPRVAKTQQKRRNCSSAEDFDHHGRVSLGSDRLVPREIIVEKSKAVRVLPASELSDPGLLLKQDLAKTTSKEELHVLESLSSRHLMKNNPGQAQQTGLATNTERLSTIQNSPTKKRKKYERGH
B2: CHD1L (protein, UniProt Q86WJ1 1-897, looked up)
Chromodomain-helicase-DNA-bind …: MERAGATSRGGQAPGFLLRLHTEGRAEAARVQEQDLRQWGLTGIHLRSYQLEGVNWLAQRFHCQNGCILGDEMGLGKTCQTIALFIYLAGRLNDEGPFLILCPLSVLSNWKEEMQRFAPGLSCVTYAGDKEERACLQQDLKQESRFHVLLTTYEICLKDASFLKSFPWSVLVVDEAHRLKNQSSLLHKTLSEFSVVFSLLLTGTPIQNSLQELYSLLSFVEPDLFSKEEVGDFIQRYQDIEKESESASELHKLLQPFLLRRVKAEVATELPKKTEVVIYHGMSALQKKYYKAILMKDLDAFENETAKKVKLQNILSQLRKCVDHPYLFDGVEPEPFEVGDHLTEASGKLHLLDKLLAFLYSGGHRVLLFSQMTQMLDILQDYMDYRGYSYERVDGSVRGEERHLAIKNFGQQPIFVFLLSTRAGGVGMNLTAADTVIFVDSDFNPQNDLQAAARAHRIGQNKSVKVIRLIGRDTVEEIVYRKAASKLQLTNMIIEGGHFTLGAQKPAADADLQLSEILKFGLDKLLASEGSTMDEIDLESILGETKDGQWVSDALPAAEGGSRDQEEGKNHMYLFEGKDYSKEPSKEDRKSFEQLVNLQKTLLEKASQEGRSLRNKGSVLIPGLVEGSTKRKRVLSPEELEDRQKKRQEAAAKRRRLIEEKKRQKEEAEHKKKMAWWESNNYQSFCLPSEESEPEDLENGEESSAELDYQDPDATSLKYVSGDVTHPQAGAEDALIVHCVDDSGHWGRGGLFTALEKRSAEPRKIYELAGKMKDLSLGGVLLFPVDDKESRNKGQDLLALIVAQHRDRSNVLSGIKMAALEEGLKKIFLAAKKKKASVHLPRIGHATKGFNWYGTERLIRKHLAARGIPTYIYYFPRSKSAVLHSQSSSSSSRQLVP
B3: RLTPR (protein, UniProt Q6F5E8 1-1435, looked up)
Capping protein, Arp2/3 and …: MAQTPDGISCELRGEITRFLWPKEVELLLKTWLPGEGAVQNHVLALLRWRAYLLHTTCLPLRVDCTFSYLEVQAMALQETPPQVTFELESLRELVLEFPGVAALEQLAQHVAAAIKKVFPRSTLGKLFRRPTPASMLARLERSSPSESTDPCSPCGGFLETYEALCDYNGFPFREEIQWDVDTIYHRQGCRHFSLGDFSHLGSRDLALSVAALSYNLWFRCLSCVDMKLSLEVSEQILHMMSQSSHLEELVLETCSLRGDFVRRLAQALAGHSSSGLRELSLAGNLLDDRGMTALSRHLERCPGALRRLSLAQTGLTPRGMRALGRALATNAAFDSTLTHLDLSGNPGALGASEDSGGLYSFLSRPNVLSFLNLAGTDTALDTVRGCSVGGWMTGRADWRAGRGGLGPPAGVANSLPPQLFAAVSRGCCTSLTHLDASRNVFSRTKSRAAPAALQLFLSRARTLRHLGLAGCKLPPDALRALLDGLALNTHLRDLHLDLSACELRSAGAQVIQDLVCDAGAVSSLDLADNGFGSDMVTLVLAIGRSRSLRHVALGRNFNVRCKETLDDVLHRIVQLMQDDDCPLQSLSVAESRLKLGASVLLRALATNPNLTALDISGNAMGDAGAKLLAKALRVNSRLRSVVWDRNHTSALGLLDVAQALEQNHSLKAMPLPLNDVAQAQRSRPELTARAVHQIQACLLRNNRADPASSDHTTRLQPLGLVSDPSEQEVNELCQSVQEHVELLGCGAGPQGEAAVRQAEDAIQNANFSLSILPILYEAGSSPSHHWQLGQKLEGLLRQVGEVCRQDIQDFTQATLDTARSLCPQMLQGSSWREQLEGVLAGSRGLPELLPEQLLQDAFTRLRDMRLSITGTLAESIVAQALAGLSAARDQLVESLAQQATVTMPPALPAPDGGEPSLLEPGELEGLFFPEEKEEEKEKDDSPPQKWPELSHGLHLVPFIHSAAEEAEPEPELAAPGEDAEPQAGPSARGSPSPAAPGPPAGPLPRMDLPLAGQPLRHPTRARPRPRRQHHHRPPPGGPQVPPALPQEGNGLSARVDEGVEEFFSKRLIQQDRLWAPEEDPATEGGATPVPRTLRKKLGTLFAFKKPRSTRGPRTDLETSPGAAPRTRKTTFGDLLRPPTRPSRGEELGGAEGDTSSPDPAGRSRPRYTRDSKAYSMILLPAEEEATLGARPDKRRPLERGETELAPSFEQRVQVMLQRIGVSRGSGGAEGKRKQSKDGEIKKAGSDGDIMDSSTEAPPISIKSRTHSVSADPSCRPGPGSQGPESATWKTLGQQLNAELRSRGWGQQDGPGPPSPGQSPSPCRTSPSPDSLGLPEDPCLGPRNEDGQLRPRPLSAGRRAVSVHEDQLQAPAERPLRLQRSPVLKRRPKLEAPPSPSLGSGLGTEPLPPQPTEPSSPERSPPSPATDQRGGGPNP
B4: RNF19B (protein, UniProt Q6ZMZ0 1-732, looked up)
E3 ubiquitin-protein ligase …: MGSEKDSESPRSTSLHAAAPDPKCRSGGRRRRLTLHSVFSASARGRRARAKPQAEPPPPAAQPPPAPAPAAAQGPPPEALPAEPAAEAEAEAAAAAAEPGFDDEEAAEGGGPGAEEVECPLCLVRLPPERAPRLLSCPHRSCRDCLRHYLRLEISESRVPISCPECSERLNPHDIRLLLADPPLMHKYEEFMLRRYLASDPDCRWCPAPDCGYAVIAYGCASCPKLTCEREGCQTEFCYHCKQIWHPNQTCDMARQQRAQTLRVRTKHTSGLSYGQESGPADDIKPCPRCSAYIIKMNDGSCNHMTCAVCGCEFCWLCMKEISDLHYLSPSGCTFWGKKPWSRKKKILWQLGTLIGAPVGISLIAGIAIPAMVIGIPVYVGRKIHSRYEGRKTSKHKRNLAITGGVTLSVIASPVIAAVSVGIGVPIMLAYVYGVVPISLCRGGGCGVSTANGKGVKIEFDEDDGPITVADAWRALKNPSIGESSIEGLTSVLSTSGSPTDGLSVMQGPYSETASFAALSGGTLSGGILSSGKGKYSRLEVQADVQKEIFPKDTASLGAISDNASTRAMAGSIISSYNPQDRECNNMEIQVDIEAKPSHYQLVSGSSTEDSLHVHAQMAENEEEGSGGGGSEEDPPCRHQSCEQKDCLASKPWDISLAQPESIRSDLESSDAQSDDVPDITSDECGSPRSHTAACPSTPRAQGAPSPSAHMNLSALAEGQTVLKPEGGEARV

What follows are molecules tested on primary AML samples (assay: HLA class I ligandome analysis (W6/32 immunoaffinity purification, LC-MS/MS) of primary AML samples). Conditions: HLA class I ligandome, AML patients (n=15); count for the HLA ligand (LiTAP) or, on protein lines, for the source protein (LiTAA).
Parameters: species or system human

Molecule | Number of positive AMLs
B1 | 3
B2 | 5
B3 | 3
B4 | 3

Same assay, conditions: representation frequency of the source protein (LiTAA) in AML patients (n=15)

Molecule | Number of positive AMLs [rep. frequency]
B1 | [20.0%]
B2 | [33.3%]
B3 | [20.0%]
B4 | [20.0%]
